Measured values taken from paper PMC2376334, “Penetration of capecitabine and its metabolites into malignant and healthy tissues of patients with advanced breast cancer” (British Journal of Cancer, 2003).

Key:
[1] = In vivo probe recovery by retrodialysis; design: species or system human
[2] = In vitro microdialysis recovery; settings: in vitro microdialysis system; independent of concentration up to 25 μg ml^−1

| Structure (SMILES) | in vivo recovery (range) ([1]; subcutaneous connective tissue) | in vivo recovery (range) ([1]; tumour) | in vitro microdialysis recovery [2] [%] |
| --- | --- | --- | --- |
| O=c1[nH]cc(F)c(=O)[nH]1 [FU, 5-fluorouracil] | 12–69% | 13–75% | 72.9 |
| C[C@H]1O[C@@H](n2cc(F)c(=O)[nH]c2=O)[C@H](O)[C@@H]1O [DFUR, 5′-deoxy-5-fluorouridine] |  |  | 61.8 |
| C[C@H]1O[C@@H](n2cc(F)c(N)nc2=O)[C@H](O)[C@@H]1O [DFCR, 5′-deoxy-5-fluorocytidine] |  |  | 60.7 |
| CCCCCOC(=O)Nc1nc(=O)n([C@@H]2O[C@H](C)[C@@H](O)[C@H]2O)cc1F [Capecitabine] | 13–65% | 11–58% | 51.8 |
